Experiment [1] deals with GST-RB large pocket (amino acids 379-928) with the RB^G mutations (human) (UniProt P06400). Description: pull-down; competition: purified GST-RBLP or GST-RBLP^G with constant myc-CDH1 C33A extract and increasing amounts of HA-E2F3/DP1 C33A extract; glutathione beads; western blot for myc and HA; only the target purified. (Immunoblotting shows a protein as a band on a membrane.)

Protein sequences, listed by entry. Tags and fused reporters are not part of them. Lines headed by an entry give the natural chain unless they say otherwise; changes in a name come on top.
UniProt P06400: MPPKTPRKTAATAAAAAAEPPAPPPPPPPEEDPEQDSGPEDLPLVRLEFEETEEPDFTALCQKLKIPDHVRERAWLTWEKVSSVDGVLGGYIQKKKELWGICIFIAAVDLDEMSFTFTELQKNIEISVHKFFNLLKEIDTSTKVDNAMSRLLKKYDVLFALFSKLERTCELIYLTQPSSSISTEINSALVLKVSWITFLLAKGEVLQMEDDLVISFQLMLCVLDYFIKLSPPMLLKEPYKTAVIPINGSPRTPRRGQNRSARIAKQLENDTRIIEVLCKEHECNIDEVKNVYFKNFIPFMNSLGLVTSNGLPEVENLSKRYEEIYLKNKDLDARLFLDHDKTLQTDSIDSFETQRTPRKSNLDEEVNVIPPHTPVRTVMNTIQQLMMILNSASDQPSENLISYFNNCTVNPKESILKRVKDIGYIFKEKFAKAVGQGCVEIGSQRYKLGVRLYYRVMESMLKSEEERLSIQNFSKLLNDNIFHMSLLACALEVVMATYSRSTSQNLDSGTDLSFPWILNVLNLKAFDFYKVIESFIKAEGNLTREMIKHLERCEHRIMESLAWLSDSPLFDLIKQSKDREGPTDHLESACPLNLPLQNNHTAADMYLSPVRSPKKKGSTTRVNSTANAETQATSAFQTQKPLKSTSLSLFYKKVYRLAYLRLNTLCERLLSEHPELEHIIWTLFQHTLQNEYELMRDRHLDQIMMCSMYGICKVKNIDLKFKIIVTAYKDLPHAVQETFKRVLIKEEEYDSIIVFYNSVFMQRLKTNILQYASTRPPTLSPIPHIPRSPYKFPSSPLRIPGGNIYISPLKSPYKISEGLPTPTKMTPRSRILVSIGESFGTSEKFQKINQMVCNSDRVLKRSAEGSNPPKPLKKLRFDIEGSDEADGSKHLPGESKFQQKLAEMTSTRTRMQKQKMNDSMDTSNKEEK
UniProt Q9UM11: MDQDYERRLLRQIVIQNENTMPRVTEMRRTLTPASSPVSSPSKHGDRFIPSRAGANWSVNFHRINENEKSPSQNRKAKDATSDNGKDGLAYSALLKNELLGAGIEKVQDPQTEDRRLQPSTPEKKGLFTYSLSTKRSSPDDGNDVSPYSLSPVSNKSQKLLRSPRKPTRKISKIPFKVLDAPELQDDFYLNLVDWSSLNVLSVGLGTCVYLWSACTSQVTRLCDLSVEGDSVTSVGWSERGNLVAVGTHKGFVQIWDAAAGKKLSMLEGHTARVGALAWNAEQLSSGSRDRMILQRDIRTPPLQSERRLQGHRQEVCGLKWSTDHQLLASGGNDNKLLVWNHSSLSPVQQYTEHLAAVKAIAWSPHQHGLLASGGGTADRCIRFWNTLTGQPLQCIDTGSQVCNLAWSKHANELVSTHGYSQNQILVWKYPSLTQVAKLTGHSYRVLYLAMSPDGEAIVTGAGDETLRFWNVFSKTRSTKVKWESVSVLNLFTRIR

The target in experiment [2] is GST-RB large pocket (amino acids 379-928) triple mutant RB^GSL (human) (UniProt P06400). Description: pull-down; purified GST-RB large pocket proteins on glutathione beads with extracts of transfected C33A cells (HA-E2F1-3 with DP1, or myc-CDH1); extract in GSE buffer (420 mM NaCl) diluted twofold in low salt GSE (20 mM Tris pH 7.5, 0.1% NP-40); western blot; only the target purified.

These are yes or no findings as the source states them, for the method shown. Binding seen in cells or lysates may run through a third protein. For some assays here: Binding calls can cover weak binding; strength is not graded here.

As to “myc tagged CDH1 (anaphase promoting complex targeting subunit) (from UniProt Q9UM11 1-496)”, the binding result in experiment [1] was “binds”; in experiment [2], “no binding”.
